The values that follow come from article PMC6258397.

No constants are given. Whether binding was seen depends on the method and setting. Binding seen in cells or lysates may run through a third protein. A result given as binding can be weak or reduced; the word gives no strength. Where a sequence is shown, tags or fusion partners need not be part of it.

Assay [1] concerns the target CdDHN4-S-cYFP (bermudagrass (Cynodon dactylon x Cynodon transvaalensis) 'Tifway'). Kind of assay: split reporter; BiFC: cYFP and nYFP fusions transiently co-transformed into leaves of 5-week-old N. benthamiana; YFP signal by confocal microscopy after 48-72 h in darkness.
Assay [2] has as its target CdDHN4-L-cYFP (bermudagrass (Cynodon dactylon x Cynodon transvaalensis) 'Tifway'). Described as above.

B1: nYFP-AtADH (enzyme, UniProt P06525 1-379)
chain: MSTTGQIIRCKAAVAWEAGKPLVIEEVEVAPPQKHEVRIKILFTSLCHTDVYFWEAKGQTPLFPRIFGHEAGGIVESVGEGVTDLQPGDHVLPIFTGECGECRHCHSEESNMCDLLRINTERGGMIHDGESRFSINGKPIYHFLGTSTFSEYTVVHSGQVAKINPDAPLDKVCIVSCGLSTGLGATLNVAKPKKGQSVAIFGLGAVGLGAAEGARIAGASRIIGVDFNSKRFDQAKEFGVTECVNPKDHDKPIQQVIAEMTDGGVDRSVECTGSVQAMIQAFECVHDGWGVAVLVGVPSKDDAFKTHPMNFLNERTLKGTFFGNYKPKTDIPGVVEKYMNKELELEKFITHTVPFSEINKAFDYMLKGESIRCIITMGA
As for B1, the binding entry in assay [1] and in assay [2] was “binds” in each case.
